Our source for the log2 fold change values is the supplement of paper PMC10849652.

Protein sequences, listed by entry. Tags and fused reporters are not part of them. Lines headed by an entry give the natural chain unless they say otherwise; changes in a name come on top.
UniProt Q9NRN7: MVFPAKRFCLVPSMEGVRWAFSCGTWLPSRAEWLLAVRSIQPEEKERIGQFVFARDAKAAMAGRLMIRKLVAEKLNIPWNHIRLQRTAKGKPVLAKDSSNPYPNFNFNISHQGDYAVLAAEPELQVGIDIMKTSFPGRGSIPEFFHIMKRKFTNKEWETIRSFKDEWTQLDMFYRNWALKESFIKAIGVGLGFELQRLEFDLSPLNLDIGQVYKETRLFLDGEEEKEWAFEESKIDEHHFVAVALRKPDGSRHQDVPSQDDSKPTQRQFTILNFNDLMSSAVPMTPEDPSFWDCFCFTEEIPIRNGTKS
UniProt Q8NE71: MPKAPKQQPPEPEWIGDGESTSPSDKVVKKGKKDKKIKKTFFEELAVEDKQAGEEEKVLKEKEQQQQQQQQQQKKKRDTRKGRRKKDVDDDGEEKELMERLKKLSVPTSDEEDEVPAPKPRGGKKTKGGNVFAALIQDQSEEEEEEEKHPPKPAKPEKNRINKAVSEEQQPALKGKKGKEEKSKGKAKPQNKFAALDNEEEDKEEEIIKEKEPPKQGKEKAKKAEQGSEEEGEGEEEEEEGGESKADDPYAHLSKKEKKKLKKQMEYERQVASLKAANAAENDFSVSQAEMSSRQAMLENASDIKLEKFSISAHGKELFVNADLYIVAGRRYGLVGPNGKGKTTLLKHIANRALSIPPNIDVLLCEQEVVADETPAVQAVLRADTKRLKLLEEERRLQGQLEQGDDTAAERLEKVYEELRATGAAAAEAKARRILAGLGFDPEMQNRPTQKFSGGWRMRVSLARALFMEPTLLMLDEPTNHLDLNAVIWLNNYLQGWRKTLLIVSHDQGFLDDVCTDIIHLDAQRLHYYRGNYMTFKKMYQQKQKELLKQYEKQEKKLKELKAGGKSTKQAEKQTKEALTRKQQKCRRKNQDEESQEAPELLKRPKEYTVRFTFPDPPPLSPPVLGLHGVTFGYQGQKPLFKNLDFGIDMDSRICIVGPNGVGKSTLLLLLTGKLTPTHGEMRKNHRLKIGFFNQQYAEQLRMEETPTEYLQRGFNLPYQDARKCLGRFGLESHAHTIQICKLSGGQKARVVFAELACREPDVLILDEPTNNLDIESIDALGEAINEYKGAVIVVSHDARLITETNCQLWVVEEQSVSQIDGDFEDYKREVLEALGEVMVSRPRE
UniProt O00154: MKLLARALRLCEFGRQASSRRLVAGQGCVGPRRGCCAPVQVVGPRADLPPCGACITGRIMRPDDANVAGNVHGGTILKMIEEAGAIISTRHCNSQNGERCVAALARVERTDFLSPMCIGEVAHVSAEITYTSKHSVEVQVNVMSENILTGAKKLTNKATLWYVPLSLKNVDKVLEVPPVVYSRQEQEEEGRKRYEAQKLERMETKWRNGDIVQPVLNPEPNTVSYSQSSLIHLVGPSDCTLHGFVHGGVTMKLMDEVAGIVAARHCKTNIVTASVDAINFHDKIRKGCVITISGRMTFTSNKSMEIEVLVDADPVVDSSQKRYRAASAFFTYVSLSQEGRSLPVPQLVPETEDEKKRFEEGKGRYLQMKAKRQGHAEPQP
UniProt Q96EY9: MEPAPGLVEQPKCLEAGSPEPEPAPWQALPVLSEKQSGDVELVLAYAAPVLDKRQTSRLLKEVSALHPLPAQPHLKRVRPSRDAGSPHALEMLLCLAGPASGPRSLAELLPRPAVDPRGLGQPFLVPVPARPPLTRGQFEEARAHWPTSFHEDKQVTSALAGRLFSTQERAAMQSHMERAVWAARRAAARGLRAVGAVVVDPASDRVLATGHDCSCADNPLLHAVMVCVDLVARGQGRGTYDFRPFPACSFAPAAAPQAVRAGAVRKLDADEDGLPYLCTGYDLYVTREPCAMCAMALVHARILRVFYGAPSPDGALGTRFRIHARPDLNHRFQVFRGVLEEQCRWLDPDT
UniProt Q9GZN1, whole entry, looked up: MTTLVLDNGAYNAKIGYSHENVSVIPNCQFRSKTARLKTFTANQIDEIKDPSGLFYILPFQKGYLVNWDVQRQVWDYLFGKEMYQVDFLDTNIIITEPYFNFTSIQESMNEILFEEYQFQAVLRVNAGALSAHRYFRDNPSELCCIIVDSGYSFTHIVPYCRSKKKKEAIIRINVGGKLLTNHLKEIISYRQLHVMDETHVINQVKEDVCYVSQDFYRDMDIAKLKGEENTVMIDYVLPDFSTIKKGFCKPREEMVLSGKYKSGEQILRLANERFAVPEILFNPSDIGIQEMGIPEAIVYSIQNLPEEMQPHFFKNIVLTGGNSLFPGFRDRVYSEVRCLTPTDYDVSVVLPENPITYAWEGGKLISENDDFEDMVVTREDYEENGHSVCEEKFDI
UniProt P16219: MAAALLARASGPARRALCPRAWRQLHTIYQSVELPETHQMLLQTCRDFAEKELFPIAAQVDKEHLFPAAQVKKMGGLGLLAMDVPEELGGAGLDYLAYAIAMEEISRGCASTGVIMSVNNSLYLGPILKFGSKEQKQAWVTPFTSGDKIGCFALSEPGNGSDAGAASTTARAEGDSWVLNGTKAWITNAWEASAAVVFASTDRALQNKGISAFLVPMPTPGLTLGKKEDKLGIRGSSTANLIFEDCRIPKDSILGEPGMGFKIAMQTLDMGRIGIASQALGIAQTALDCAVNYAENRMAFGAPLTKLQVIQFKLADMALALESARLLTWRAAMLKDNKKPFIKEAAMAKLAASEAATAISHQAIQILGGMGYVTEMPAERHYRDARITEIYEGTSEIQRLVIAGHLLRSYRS
UniProt Q15067: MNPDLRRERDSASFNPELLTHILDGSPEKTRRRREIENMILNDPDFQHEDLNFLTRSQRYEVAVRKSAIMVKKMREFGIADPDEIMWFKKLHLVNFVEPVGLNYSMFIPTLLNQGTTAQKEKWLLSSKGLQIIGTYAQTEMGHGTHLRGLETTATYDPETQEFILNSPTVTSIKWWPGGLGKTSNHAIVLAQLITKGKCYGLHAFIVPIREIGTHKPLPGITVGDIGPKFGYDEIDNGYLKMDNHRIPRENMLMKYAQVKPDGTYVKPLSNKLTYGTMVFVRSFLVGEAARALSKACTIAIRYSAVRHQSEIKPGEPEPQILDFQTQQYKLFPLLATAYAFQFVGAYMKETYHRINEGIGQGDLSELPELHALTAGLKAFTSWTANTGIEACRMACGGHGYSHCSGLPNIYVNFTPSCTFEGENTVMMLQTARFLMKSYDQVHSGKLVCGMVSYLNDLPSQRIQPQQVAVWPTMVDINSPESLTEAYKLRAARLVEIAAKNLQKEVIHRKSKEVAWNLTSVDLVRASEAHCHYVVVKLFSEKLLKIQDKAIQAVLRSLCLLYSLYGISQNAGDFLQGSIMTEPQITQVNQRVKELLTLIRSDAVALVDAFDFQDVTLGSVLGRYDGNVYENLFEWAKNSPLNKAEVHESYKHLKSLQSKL
UniProt P01023, whole entry, looked up: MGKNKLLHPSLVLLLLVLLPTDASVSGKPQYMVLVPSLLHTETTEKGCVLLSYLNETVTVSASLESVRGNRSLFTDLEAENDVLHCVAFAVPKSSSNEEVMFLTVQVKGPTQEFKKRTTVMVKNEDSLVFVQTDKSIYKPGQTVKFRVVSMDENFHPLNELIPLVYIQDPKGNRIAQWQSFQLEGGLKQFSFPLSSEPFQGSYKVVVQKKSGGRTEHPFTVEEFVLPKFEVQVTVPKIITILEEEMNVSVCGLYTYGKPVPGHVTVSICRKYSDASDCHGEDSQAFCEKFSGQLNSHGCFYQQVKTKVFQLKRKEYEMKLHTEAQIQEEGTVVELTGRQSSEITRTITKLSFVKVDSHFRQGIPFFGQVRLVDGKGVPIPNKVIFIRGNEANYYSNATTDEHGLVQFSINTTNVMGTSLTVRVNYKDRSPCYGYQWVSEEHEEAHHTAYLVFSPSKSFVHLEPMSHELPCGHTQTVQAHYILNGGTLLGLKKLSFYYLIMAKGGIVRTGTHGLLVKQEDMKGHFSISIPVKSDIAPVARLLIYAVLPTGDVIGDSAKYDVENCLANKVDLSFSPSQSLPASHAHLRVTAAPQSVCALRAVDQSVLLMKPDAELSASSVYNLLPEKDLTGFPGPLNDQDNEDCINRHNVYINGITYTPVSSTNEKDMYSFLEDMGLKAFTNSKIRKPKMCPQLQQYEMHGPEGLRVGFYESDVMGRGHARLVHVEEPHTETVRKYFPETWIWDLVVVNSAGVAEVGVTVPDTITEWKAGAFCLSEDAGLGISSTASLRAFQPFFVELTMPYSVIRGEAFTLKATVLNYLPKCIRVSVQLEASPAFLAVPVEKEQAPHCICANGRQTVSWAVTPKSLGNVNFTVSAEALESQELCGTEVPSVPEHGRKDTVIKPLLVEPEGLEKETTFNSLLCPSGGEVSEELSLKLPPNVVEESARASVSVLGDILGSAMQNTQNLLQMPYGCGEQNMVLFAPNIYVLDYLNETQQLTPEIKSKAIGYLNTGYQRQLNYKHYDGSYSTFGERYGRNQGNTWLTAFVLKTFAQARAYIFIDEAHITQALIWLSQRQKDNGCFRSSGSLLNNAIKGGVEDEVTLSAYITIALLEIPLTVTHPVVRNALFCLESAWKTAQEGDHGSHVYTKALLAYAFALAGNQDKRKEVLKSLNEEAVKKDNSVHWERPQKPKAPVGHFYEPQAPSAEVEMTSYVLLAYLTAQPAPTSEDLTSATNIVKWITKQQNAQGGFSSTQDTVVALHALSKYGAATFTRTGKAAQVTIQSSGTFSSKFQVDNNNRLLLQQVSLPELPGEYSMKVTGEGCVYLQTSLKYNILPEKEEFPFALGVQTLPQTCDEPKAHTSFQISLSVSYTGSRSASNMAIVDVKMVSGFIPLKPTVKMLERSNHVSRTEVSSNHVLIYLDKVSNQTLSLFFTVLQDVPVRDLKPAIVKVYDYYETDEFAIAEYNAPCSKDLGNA
UniProt Q9NZ32, whole entry, looked up: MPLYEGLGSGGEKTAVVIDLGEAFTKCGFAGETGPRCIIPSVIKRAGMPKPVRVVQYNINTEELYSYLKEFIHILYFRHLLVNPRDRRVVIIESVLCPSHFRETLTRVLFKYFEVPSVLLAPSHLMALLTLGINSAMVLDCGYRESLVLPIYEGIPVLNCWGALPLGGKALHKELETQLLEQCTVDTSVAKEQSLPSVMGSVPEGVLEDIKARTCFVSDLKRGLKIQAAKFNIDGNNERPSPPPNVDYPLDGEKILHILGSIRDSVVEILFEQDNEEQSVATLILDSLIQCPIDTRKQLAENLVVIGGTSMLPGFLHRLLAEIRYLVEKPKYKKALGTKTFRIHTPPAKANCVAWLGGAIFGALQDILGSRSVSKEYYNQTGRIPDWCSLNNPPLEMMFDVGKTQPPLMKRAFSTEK
UniProt O15439: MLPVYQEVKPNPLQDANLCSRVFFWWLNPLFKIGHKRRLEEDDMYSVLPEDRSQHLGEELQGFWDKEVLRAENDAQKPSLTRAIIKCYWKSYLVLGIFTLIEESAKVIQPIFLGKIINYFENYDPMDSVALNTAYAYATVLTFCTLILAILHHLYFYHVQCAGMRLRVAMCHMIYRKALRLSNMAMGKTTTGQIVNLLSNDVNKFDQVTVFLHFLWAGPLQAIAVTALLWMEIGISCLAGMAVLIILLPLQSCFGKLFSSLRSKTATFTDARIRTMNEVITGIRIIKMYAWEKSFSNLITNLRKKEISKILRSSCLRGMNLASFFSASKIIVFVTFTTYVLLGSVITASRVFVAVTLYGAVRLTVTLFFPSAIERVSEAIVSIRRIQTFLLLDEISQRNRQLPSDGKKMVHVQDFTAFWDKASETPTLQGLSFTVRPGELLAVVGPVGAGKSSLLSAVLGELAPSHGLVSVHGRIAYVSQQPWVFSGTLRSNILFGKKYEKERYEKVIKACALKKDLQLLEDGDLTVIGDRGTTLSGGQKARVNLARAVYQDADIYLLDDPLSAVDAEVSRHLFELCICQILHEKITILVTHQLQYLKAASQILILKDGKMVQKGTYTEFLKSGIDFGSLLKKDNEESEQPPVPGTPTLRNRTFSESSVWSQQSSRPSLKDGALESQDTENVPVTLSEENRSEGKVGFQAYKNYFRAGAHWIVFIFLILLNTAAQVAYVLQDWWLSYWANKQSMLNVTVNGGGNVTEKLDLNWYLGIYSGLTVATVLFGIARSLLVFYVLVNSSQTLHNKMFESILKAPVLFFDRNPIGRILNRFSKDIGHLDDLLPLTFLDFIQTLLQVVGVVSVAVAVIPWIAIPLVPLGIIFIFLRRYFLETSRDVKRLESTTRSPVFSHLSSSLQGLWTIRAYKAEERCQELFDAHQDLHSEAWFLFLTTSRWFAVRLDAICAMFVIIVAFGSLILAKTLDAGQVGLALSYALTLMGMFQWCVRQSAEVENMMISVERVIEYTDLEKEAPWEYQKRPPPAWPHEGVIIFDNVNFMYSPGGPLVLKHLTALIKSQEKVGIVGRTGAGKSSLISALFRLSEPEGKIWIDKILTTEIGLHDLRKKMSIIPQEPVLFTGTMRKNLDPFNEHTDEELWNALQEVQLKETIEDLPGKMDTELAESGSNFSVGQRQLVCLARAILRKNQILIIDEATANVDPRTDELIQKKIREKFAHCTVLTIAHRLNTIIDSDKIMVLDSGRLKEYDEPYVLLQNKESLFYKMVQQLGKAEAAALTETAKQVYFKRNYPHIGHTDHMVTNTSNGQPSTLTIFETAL

The other results are listed elsewhere or left out.

Compound in this assay: CN1CCC(CNc2ccc3ncc(-c4cccc(OC(F)(F)F)c4)n3n2)CC1
Description: log2 fold change, soluble protein after heating vs DMSO (PISA); higher = thermal stabilisation; K562 cells, 10 uM, 30 min; active = over 0.2 and 3.5 SD of the protein, either way, in both replicates (recomputed). In a few lines: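 K562 cells (2×10^6 cells/mL) were treated with 10 μM compound for 30 min, and aliquots were heated for 3 min over 48°C-58°C. Pooled aliquots were extracted in PBS with 0.5% NP-40 at 4°C, and the supernatant after 21,000xg for 90 min was measured by TMTpro 16plex LC-MS/MS with channel sums equalised. Reported thermal stability, relative to control samples and from duplicates, is a log2 fold change.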
Regarding AAAS (UniProt Q9NRG9), the log2 fold change is inactive: -0.028. ACAD8 (UniProt Q9UKU7): the log2 fold change is inactive: 0.001. For the target ACTA1 (UniProt P68133), the log2 fold change was inactive: 0.059. AASDHPPT (UniProt Q9NRN7): the log2 fold change was inactive: 0.023. As to ABHD13 (UniProt Q7L211), the log2 fold change is inactive: -0.004. In the case of ABCF1 (UniProt Q8NE71), the log2 fold change is inactive: 0.12.

With ACTR1A (UniProt P61163), the log2 fold change is inactive: -0.005. Turning to ACOT7 isoform 7 (UniProt O00154), the log2 fold change is inactive: -0.03.

With ADA (UniProt P00813), the log2 fold change is inactive: 0.033. For ABHD17B (UniProt Q5VST6) the value was inactive: -0.102.

For ADAT3 (UniProt Q96EY9), the log2 fold change was inactive: 0.088. To ACTL8 (UniProt Q9H568) belongs inactive: 0.023. For the target ACTB, A0A2R8Y793, the log2 fold change was inactive: 0.077. Take ACTR6 (UniProt Q9GZN1): the log2 fold change is inactive: -0.018.

For ACOT13 (UniProt Q9NPJ3), the log2 fold change was inactive: 0.127. Take ACADS (UniProt P16219): the log2 fold change was inactive: 0.069. For ACTL6A (UniProt O96019) the value was inactive: -0.053; for ABCB7 isoform 2 (UniProt O75027), inactive: -0.052.

As to ABCE1 (UniProt P61221), the log2 fold change is inactive: -0.018. For ACLY (UniProt P53396) the value was inactive: -0.116; for ABLIM1 (UniProt O14639), inactive: -0.108.

With ACOX1 isoform 2 (UniProt Q15067), the log2 fold change was inactive: 0.012.

For the target ACAT1 (UniProt P24752), the log2 fold change is inactive: 0.064. With ABCE1 (UniProt H0Y990), the log2 fold change is inactive: 0.121. Regarding ACBD3 (UniProt Q9H3P7), the log2 fold change is inactive: -0.03. As for ACTR3 (UniProt P61158), the log2 fold change is inactive: 0.083. To A2M (UniProt P01023) belongs inactive: 0.043. To ACTR10 (UniProt Q9NZ32) belongs inactive: 0.101; to ADAR isoform 4 (UniProt P55265), inactive: 0.068; to ACAA1 (UniProt P09110), inactive: 0.068.

Regarding ACYP1 (UniProt P07311), the log2 fold change was inactive: -0.101. Turning to ABCC4 (UniProt O15439), the log2 fold change was inactive: 0.163. Take ACSS2 isoform 2 (UniProt Q9NR19): the log2 fold change was inactive: -0.123. To ACAT2 (UniProt Q9BWD1) belongs inactive: 0.006; to ABHD10 (UniProt Q9NUJ1), inactive: 0.048; to ABI1 (UniProt Q8IZP0), inactive: 0.012.

As to ACOT9 isoform 4 (UniProt Q9Y305), the log2 fold change is inactive: 0.142.
